Measured values as given in PMC5123387.
These are yes or no findings as the source states them, for the method shown. Binding seen in cells or lysates may run through a third protein. Some results given as binding are weak or reduced against the parent protein; the word gives no strength.

Amino acid sequences for entries named in this document (tags omitted). Residues count along the entry.
UniProt P37173, residues 23-567: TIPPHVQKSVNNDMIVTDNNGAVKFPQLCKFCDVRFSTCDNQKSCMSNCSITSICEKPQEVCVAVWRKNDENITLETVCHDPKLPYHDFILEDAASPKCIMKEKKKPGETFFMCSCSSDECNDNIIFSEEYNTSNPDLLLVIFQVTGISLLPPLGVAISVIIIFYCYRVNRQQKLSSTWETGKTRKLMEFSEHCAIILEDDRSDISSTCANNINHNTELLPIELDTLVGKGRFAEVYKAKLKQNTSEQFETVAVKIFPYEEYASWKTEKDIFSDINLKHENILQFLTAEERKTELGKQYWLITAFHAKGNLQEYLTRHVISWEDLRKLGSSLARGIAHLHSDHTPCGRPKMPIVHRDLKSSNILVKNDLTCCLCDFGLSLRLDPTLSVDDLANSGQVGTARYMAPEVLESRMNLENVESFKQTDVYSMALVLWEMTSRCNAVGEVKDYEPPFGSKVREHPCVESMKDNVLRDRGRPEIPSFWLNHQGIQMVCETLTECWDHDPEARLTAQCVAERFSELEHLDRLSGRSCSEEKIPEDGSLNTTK
UniProt P26041: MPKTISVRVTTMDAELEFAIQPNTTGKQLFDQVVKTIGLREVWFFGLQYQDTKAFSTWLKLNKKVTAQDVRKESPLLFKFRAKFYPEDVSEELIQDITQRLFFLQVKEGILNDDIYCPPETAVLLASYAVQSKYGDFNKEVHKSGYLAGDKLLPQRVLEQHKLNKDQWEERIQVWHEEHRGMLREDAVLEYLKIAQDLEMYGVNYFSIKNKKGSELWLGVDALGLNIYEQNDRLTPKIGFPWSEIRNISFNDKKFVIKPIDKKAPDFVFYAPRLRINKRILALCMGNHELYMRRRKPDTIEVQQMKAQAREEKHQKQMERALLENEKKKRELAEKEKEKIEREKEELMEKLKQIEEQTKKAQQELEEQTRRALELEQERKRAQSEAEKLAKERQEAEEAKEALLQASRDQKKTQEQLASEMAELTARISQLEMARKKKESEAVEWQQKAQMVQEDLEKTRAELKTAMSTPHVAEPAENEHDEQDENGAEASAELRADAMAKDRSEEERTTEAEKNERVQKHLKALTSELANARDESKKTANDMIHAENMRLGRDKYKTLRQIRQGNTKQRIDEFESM
UniProt P26038: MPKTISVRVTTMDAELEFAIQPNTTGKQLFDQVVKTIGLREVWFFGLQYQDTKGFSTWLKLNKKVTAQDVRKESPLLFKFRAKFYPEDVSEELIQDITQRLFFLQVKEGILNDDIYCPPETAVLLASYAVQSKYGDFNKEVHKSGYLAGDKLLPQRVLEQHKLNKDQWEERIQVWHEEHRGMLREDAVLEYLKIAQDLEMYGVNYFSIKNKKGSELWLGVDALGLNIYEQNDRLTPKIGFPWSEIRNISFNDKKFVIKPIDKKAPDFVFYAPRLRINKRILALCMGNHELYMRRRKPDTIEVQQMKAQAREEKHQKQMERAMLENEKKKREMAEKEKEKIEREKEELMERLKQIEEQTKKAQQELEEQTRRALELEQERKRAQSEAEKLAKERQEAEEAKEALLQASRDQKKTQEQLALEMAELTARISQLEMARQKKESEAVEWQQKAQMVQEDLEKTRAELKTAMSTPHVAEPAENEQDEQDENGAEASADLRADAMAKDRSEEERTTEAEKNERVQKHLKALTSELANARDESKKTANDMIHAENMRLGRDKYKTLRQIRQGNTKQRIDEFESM

Tests used:
[1] = molecular target: T1, TGF-β receptor II (mouse (endogenous in EL4)) (UniProt Q62312); test: co-IP; immunoprecipitation with anti-TβRII and control immunoglobulin G antibodies of EL4 cell lysates, immunoblot of pulldown and input
T1 sequence: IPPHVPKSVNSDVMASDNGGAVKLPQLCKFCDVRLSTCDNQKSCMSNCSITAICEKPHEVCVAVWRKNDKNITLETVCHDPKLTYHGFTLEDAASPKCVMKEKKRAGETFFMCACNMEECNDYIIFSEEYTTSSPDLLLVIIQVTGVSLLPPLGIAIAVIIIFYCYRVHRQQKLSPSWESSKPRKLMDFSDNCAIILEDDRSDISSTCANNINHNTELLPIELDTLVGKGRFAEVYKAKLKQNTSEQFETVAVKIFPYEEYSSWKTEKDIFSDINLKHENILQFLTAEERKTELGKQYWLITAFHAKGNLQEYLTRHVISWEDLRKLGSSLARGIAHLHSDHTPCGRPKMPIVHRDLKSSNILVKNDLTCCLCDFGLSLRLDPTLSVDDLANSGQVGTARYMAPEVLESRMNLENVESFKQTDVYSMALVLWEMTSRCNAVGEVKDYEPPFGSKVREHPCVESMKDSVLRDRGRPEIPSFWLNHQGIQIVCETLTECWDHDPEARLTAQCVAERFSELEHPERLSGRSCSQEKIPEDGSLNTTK

[2] = molecular target: TβRII-tagged with haemagglutinin at the carboxy terminus (UniProt P37173); test: co-IP; HEK293FT cells co-transfected with Msn-WT-CFP and TβRII-HA; immunoprecipitation of solubilised proteins with anti-GFP and anti-HA antibodies, immunoblot

Substance | binding [1] | binding [2]
moesin (from UniProt P26041 1-577) | binds | 
wild-type moesin-tagged with CFP at the carboxy terminus (from UniProt P26038 1-577) |  | binds
